Laboratory results from publication PMC9418147, “Identification and structure-based drug design of cell-active inhibitors of interleukin 17A at a novel C-terminal site” (Scientific Reports, 2022).
Results are given in words; binding and its absence hold for the method and conditions named. Some binding calls cover weakened binding; strength is not graded here.

Sequences of proteins named here, by UniProt entry; tags and fusion partners are left off. A change or cut given only in a name is not applied to a line headed by its entry. A line that says so, or that is headed by a name, gives the form on record, which may keep a tag or linker. Residues count along the entry.
UniProt Q96F46, residues 33-320: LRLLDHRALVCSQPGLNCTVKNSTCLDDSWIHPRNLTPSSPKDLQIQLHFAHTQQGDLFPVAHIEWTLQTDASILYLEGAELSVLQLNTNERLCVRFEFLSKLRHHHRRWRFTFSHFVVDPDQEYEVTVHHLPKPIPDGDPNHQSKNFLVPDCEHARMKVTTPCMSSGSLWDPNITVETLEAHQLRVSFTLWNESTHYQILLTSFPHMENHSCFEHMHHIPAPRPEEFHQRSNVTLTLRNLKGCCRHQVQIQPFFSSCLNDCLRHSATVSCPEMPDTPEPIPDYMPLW
biotinylated IL17A (R&D systems) (Q16552, residues 24-155): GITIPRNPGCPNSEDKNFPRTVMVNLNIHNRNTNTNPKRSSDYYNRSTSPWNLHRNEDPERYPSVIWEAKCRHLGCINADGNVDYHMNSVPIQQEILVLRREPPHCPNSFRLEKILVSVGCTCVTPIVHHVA
IL17A (34–148)C129S (Q16552, form named): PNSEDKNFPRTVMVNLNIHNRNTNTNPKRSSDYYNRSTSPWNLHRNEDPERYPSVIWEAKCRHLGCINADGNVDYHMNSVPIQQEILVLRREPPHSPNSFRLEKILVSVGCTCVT

Assays:
[1] = molecular target: Fc tag IL17RA (Sino Biological) (UniProt Q96F46); assay: SPR; Fc tag IL17RA captured on immobilized anti-Fc surface; IL17A injected at 80 µL/min, contact 180 s, dissociation 1200 s; regeneration 10 mM Glycine pH 1.5; both purified
IL17RA-Fc (R&D Systems) = IL17RA-Fc (R&D Systems) (UniProt Q96F46); assay: AlphaScreen or HTRF; AlphaLISA; 1 nM biotinylated IL17A and 1 nM IL17RA-Fc; protein A acceptor beads, streptavidin donor beads; 100 mM Tris, 0.01% Tween-20, 0.1% BSA, pH 8.0; room temperature; both purified

Substance | binding [1] | binding (IL17RA-Fc (R&D Systems))
IL17A (34–148)C129S (from UniProt Q16552 34-148) (ligand) | no binding | 
biotinylated IL17A (R&D systems) (from UniProt Q16552 24-155) (ligand) |  | binds
